# Results as given in the supplement of paper PMC8728848.
# The other results are listed elsewhere or left out.
# B1: GS7807F-bth-514-18-514 (Bacteroides thetaiotaomicron) (protein)
# chain: AGSCTGNFEEYNTNQFQIHEADPSTLMKSMIETIVNIQQNDSQMMDQMVGQLGGYLTCANVWSGTNFGTFNQSDAWNAGPWNTNFEKIYGNFFQIQEATNESGHYYAFARMIRAITMLRVADCYGPMPYSQVKKGNFYVAYDTEEQVYKNIMEDFASAANVLYNYYKDTNGNAPLASNDPVFSGNYANWARLANSMRLRVAIRISTAYPEMAKENAEAAASHEAGLIEANNDNAMMDCGSQTNPYQLAAVSWGDLRVNANIVDYMNGYGDPRMSKYFNHSTFTGHTQEYVGMRSGEDGFAKSDVAGYSIPAITGTSKLLVFCAAETAFLRAEGKLKNWSVGNKSAKEYYEEGIKLSMEQYGTTMPDNYLTNTEKPTVSHNNDPRGHAYTISNTVAVAWNDNNEEENLQRIITQKWIANYPLGLEAWAEYRRTGYPELYPCIDNLSPSGVDSKRGMRRLRFPYTEVQNNHSNYQQGVSYLKNGGPDNEATDLSWGKTN
# Columns and labels:
# Experiment in all cases: glycan array binding signal (z-score within array); higher = stronger binding
# Settings in all cases: glycan notation: IUPAC condensed, linker removed
# [1] = molecular target: GlcNAc(b1-3)Gal(b1-4)GlcNAc(b1-2)Man(a1-3)[GlcNAc(b1-3)Gal(b1-4)GlcNAc(b1-2)Man(a1-6)]Man(b1-4)GlcNAc(b1-4)[Fuc(a1-6)]GlcNAc
# Summary of the method: (§1)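 Glycan array binding is given as a within-array Z-score, which can be read as non-binding when negative. The arrays, 3228 of them, came from the Consortium for Functional Glycomics database and were retained only where the protein sequence was available. Z-scores were averaged across arrays of the same protein sequence at different concentrations or buffers and across linkers.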
# [2] = molecular target: GlcNAc(b1-3)Gal(b1-4)GlcNAc(b1-2)[GlcNAc(b1-3)Gal(b1-4)GlcNAc(b1-6)]Man(a1-6)[GlcNAc(b1-3)Gal(b1-4)GlcNAc(b1-2)Man(a1-3)]Man(b1-4)GlcNAc(b1-4)GlcNAc
# Summary of the method: as §1
# [3] = molecular target: GlcNAc(b1-3)Gal(b1-4)GlcNAc(b1-3)Gal(b1-4)GlcNAc
# Summary of the method: as §1
# [4] = molecular target: GlcNAc(b1-3)Gal(b1-4)GlcNAc(b1-3)Gal(b1-4)GlcNAc(b1-2)Man(a1-3)[GlcNAc(b1-3)Gal(b1-4)GlcNAc(b1-3)Gal(b1-4)GlcNAc(b1-2)Man(a1-6)]Man(b1-4)GlcNAc(b1-4)GlcNAc
# Summary of the method: as §1
# [5] = molecular target: GlcNAc(b1-3)Gal(b1-4)GlcNAc(b1-3)Gal(b1-4)GlcNAc(b1-2)Man(a1-3)[GlcNAc(b1-3)Gal(b1-4)GlcNAc(b1-3)Gal(b1-4)GlcNAc(b1-2)Man(a1-6)]Man(b1-4)GlcNAc(b1-4)[Fuc(a1-6)]GlcNAc
# Summary of the method: as §1
# [6] = molecular target: GlcNAc(b1-3)Gal(b1-4)GlcNAc(b1-3)Gal(b1-4)GlcNAc(b1-2)[GlcNAc(b1-3)Gal(b1-4)GlcNAc(b1-3)Gal(b1-4)GlcNAc(b1-6)]Man(a1-6)[GlcNAc(b1-3)Gal(b1-4)GlcNAc(b1-3)Gal(b1-4)GlcNAc(b1-2)Man(a1-3)]Man(b1-4)GlcNAc(b1-4)[Fuc(a1-6)]GlcNAc
# Summary of the method: as §1
# [7] = molecular target: GlcNAc(b1-3)Gal(b1-4)GlcNAc(b1-3)Gal(b1-4)GlcNAc(b1-3)Gal(b1-4)GlcNAc(b1-2)Man(a1-3)[GlcNAc(b1-3)Gal(b1-4)GlcNAc(b1-3)Gal(b1-4)GlcNAc(b1-3)Gal(b1-4)GlcNAc(b1-2)Man(a1-6)]Man(b1-4)GlcNAc(b1-4)GlcNAc
# Summary of the method: as §1
# [8] = molecular target: GlcNAc(b1-3)Gal(b1-4)GlcNAc(b1-3)Gal(b1-4)GlcNAc(b1-3)Gal(b1-4)GlcNAc(b1-2)Man(a1-3)[GlcNAc(b1-3)Gal(b1-4)GlcNAc(b1-3)Gal(b1-4)GlcNAc(b1-3)Gal(b1-4)GlcNAc(b1-2)Man(a1-6)]Man(b1-4)GlcNAc(b1-4)[Fuc(a1-6)]GlcNAc
# Summary of the method: as §1
# [9] = molecular target: GlcNAc(b1-3)Gal(b1-4)GlcNAc(b1-3)Gal(b1-4)GlcNAc(b1-3)Gal(b1-4)GlcNAc(b1-2)[GlcNAc(b1-3)Gal(b1-4)GlcNAc(b1-3)Gal(b1-4)GlcNAc(b1-3)Gal(b1-4)GlcNAc(b1-6)]Man(a1-6)[GlcNAc(b1-3)Gal(b1-4)GlcNAc(b1-3)Gal(b1-4)GlcNAc(b1-3)Gal(b1-4)GlcNAc(b1-2)Man(a1-3)]Man(b1-4)GlcNAc(b1-4)[Fuc(a1-6)]GlcNAc
# Summary of the method: as §1
# [10] = molecular target: GlcNAc(b1-3)Gal(b1-4)GlcNAc(b1-3)Gal(b1-4)GlcNAc(b1-3)Gal(b1-4)GlcNAc(b1-3)Gal(b1-4)GlcNAc(b1-2)Man(a1-3)[GlcNAc(b1-3)Gal(b1-4)GlcNAc(b1-3)Gal(b1-4)GlcNAc(b1-3)Gal(b1-4)GlcNAc(b1-3)Gal(b1-4)GlcNAc(b1-2)Man(a1-6)]Man(b1-4)GlcNAc(b1-4)GlcNAc
# Summary of the method: as §1
# [11] = molecular target: GlcNAc(b1-3)Gal(b1-4)GlcNAc(b1-3)Gal(b1-4)GlcNAc(b1-3)Gal(b1-4)GlcNAc(b1-3)Gal(b1-4)GlcNAc(b1-2)Man(a1-3)[GlcNAc(b1-3)Gal(b1-4)GlcNAc(b1-3)Gal(b1-4)GlcNAc(b1-3)Gal(b1-4)GlcNAc(b1-3)Gal(b1-4)GlcNAc(b1-2)Man(a1-6)]Man(b1-4)GlcNAc(b1-4)[Fuc(a1-6)]GlcNAc
# Summary of the method: as §1
# [12] = molecular target: GlcNAc(b1-3)Gal(b1-4)GlcNAc(b1-3)Gal(b1-4)GlcNAc(b1-3)Gal(b1-4)GlcNAc(b1-3)Gal(b1-4)GlcNAc(b1-2)[GlcNAc(b1-3)Gal(b1-4)GlcNAc(b1-3)Gal(b1-4)GlcNAc(b1-3)Gal(b1-4)GlcNAc(b1-3)Gal(b1-4)GlcNAc(b1-6)]Man(a1-6)[GlcNAc(b1-3)Gal(b1-4)GlcNAc(b1-3)Gal(b1-4)GlcNAc(b1-3)Gal(b1-4)GlcNAc(b1-3)Gal(b1-4)GlcNAc(b1-2)Man(a1-3)]Man(b1-4)GlcNAc(b1-4)[Fuc(a1-6)]GlcNAc
# Summary of the method: as §1
# [13] = molecular target: GlcNAc(b1-3)Gal(b1-4)GlcNAc(b1-3)Gal(b1-4)GlcNAc(b1-3)GalNAc
# Summary of the method: as §1
# [14] = molecular target: GlcNAc(b1-3)Gal(b1-4)GlcNAc(b1-3)GalNAc
# Summary of the method: as §1
# [15] = molecular target: GlcNAc(b1-3)Gal(b1-4)GlcNAc(b1-3)[GlcNAc(b1-3)Gal(b1-4)GlcNAc(b1-3)]GalNAc
# Summary of the method: as §1
# [16] = molecular target: GlcNAc(b1-3)Gal(b1-4)GlcNAc(b1-6)[Gal(b1-3)]GalNAc
# Summary of the method: as §1
# [17] = molecular target: GlcNAc(b1-3)Gal(b1-4)GlcNAc(b1-6)[GlcNAc(b1-3)Gal(b1-3)]GalNAc
# Summary of the method: as §1
# [18] = molecular target: GlcNAc(b1-3)Gal(b1-4)GlcNAc(b1-6)[GlcNAc(b1-3)]Gal(b1-4)GlcNAc
# Summary of the method: as §1
# GlcNAc(b1-3)GalNAc = molecular target: GlcNAc(b1-3)GalNAc
# Summary of the method: as §1
binder,measurement,setting,value
B1,glycan array binding signal (z-score),[1],0.175
same,glycan array binding signal (z-score),[2],0.143
same,glycan array binding signal (z-score),[3],-0.802
same,glycan array binding signal (z-score),[4],-0.17
same,glycan array binding signal (z-score),[5],-0.665
same,glycan array binding signal (z-score),[6],0.581
same,glycan array binding signal (z-score),[7],2.65
same,glycan array binding signal (z-score),[8],3.26
same,glycan array binding signal (z-score),[9],-0.514
same,glycan array binding signal (z-score),[10],-0.802
same,glycan array binding signal (z-score),[11],1.77
same,glycan array binding signal (z-score),[12],3.08
same,glycan array binding signal (z-score),[13],-0.852
same,glycan array binding signal (z-score),[14],-0.092
same,glycan array binding signal (z-score),[15],1.28
same,glycan array binding signal (z-score),[16],-0.628
same,glycan array binding signal (z-score),[17],-0.759
same,glycan array binding signal (z-score),[18],-0.91
same,glycan array binding signal (z-score),GlcNAc(b1-3)GalNAc,-0.702

# Some of the entries above, set out differently.
binder	measurement	setting	value
B1	glycan array binding signal (z-score)	[18]	-0.91
same	glycan array binding signal (z-score)	GlcNAc(b1-3)GalNAc	-0.702
